Measurements: PubChem BioAssay AID504467 (National Center for Advancing Translational Sciences (NCATS), 2011)
The campaign covered roughly 330,000 compounds. About 7,700 (2.3%) were called active. Inconclusive results, whose numbers are uncertain, are shown with a selection of clear calls. The call rests on the fitted dose curve; in most records, active means well fitted inhibition curve with a large enough effect; inconclusive means small, poorly fitted or top-dose-only effect, or effect the other way; inactive means flat fitted curve, though single readings scatter. Potencies beside an inconclusive call are fits to weak or partial responses and may not hold up.

Experiment: qHTS screen for small molecules that inhibit ELG1-dependent DNA repair in human embryonic kidney (HEK293T) cells expressing luciferase-tagged ELG1; further: nearly all actives have a fitted effect of over 55% in size
Conditions: HEK293T ELG1-luciferase reporter, luminescence, 16 h, DNA damage induced by 5-fluorouridine; activity change, negative = inhibition: at 46.1 µM (top of the series)
Method in brief: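 Overnight (16 hr) co-exposure of 2,000 cells/well to 5-fluorouridine and compound at 37 °C preceded detection. Luciferase was quantified via ONE-Glo luminescence; loss of signal denotes inhibition.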
On the % scale 0 is the no-effect control and ±100 the full control effect; potency means the concentration at half of the fitted maximal effect.

Row | Compound | activity change, negative = inhibition | Potency
1 | CCOC(=O)CN(C)Cc1cn[nH]c1-c1ccc2cc(OC)ccc2c1 | inactive: 2.94% | 
2 | Cc1sc2ncn3cnnc3c2c1C |  | inconclusive: 25.9 µM [inhibitor, partial curve, poor fit]
3 | CC(=O)N1CC(C)Sc2ccc(S(=O)(=O)NCc3ccc(Cl)cc3)cc21 (stereo not drawn) | inactive: -12.5% | 
4 | Cc1cc(=O)c2cc(NC(=O)c3ccccc3Cl)ccc2[nH]1 |  | inconclusive: 5.17 µM [activator, single point]
5 | CC(C)C(=O)Nc1ncc(Cc2cccc(Cl)c2)s1 | inactive: 1.95% | 
6 | CCOc1ccccc1CN1CCCC(CNC(=O)Cc2ccc(OC)cc2)C1 (stereo not drawn) |  | inconclusive: 35.5 µM [inhibitor, single point]
7 | COc1ccc(-c2cc(C(=O)N/N=C/c3sccc3C)c3ccccc3n2)c(OC)c1 |  | inconclusive: 20.6 µM [inhibitor, single point]
8 | C/C(=N\NC(=O)CSCc1ccccc1Cl)c1cc(O)ccc1O |  | active: 18.3 µM
9 | CCOc1ncccc1C(=O)Nc1cccc(S(=O)(=O)N2CCOCC2)c1 |  | inconclusive: 18.3 µM [inhibitor, partial curve]
10 | CCOC(=O)C1=C(C)N=c2s/c(=C\c3cccc(OCC(=O)O)c3)c(=O)n2C1c1ccccc1OC (stereo not drawn) | inactive: -3.68% | 
11 | CC1=C(C(=O)NC2CCCc3c2cnn3-c2cc(F)cc(F)c2)OCCO1 (stereo not drawn) | inactive: 7.42% | 
12 | CC12CCC(=O)C=C1CCC1C2C(=O)CC2(C)C1CCC2(O)C(=O)CO (stereo not drawn) | inactive: 1.26% | 
13 | COC(=O)c1ccc(Cn2c(O)c(N=O)c3ccccc32)o1 | inactive: 8.02% | 
14 | COc1ccc(NC(=S)N(CCCN2CCCC2)Cc2cccn2Cc2ccc(Cl)cc2)cc1Cl |  | inconclusive: 29.1 µM [inhibitor, single point]
15 | COc1ccc(C(=O)NC(=S)NC2CCCCC2)cc1 |  | inconclusive: 13 µM [activator, partial curve]
16 | CN(Cc1ccccc1)C(=O)Cn1c(=O)c2cccn2c2cccnc21 | inactive: -8.11% | 
17 | COCCn1nnnc1C(c1ccc(OC)c(OC)c1)N1CCN(c2nc3ccccc3s2)CC1 (stereo not drawn) |  | inconclusive: 16.4 µM [inhibitor, partial curve, poor fit]
18 | NC(=O)c1nsc(C(=O)N(c2ccc(F)cc2)C(C(=O)NC2CCCC2)c2ccncc2)c1N (stereo not drawn) | inactive: 3.61% | 
19 | CCN(CC)c1ccc2c(Cl)cc(=O)oc2c1 | inactive: -28.4% | 

2 entries from above, with tabs:
Row	Compound	activity change, negative = inhibition	Potency
5	CC(C)C(=O)Nc1ncc(Cc2cccc(Cl)c2)s1	inactive: 1.95%	
6	CCOc1ccccc1CN1CCCC(CNC(=O)Cc2ccc(OC)cc2)C1 (stereo not drawn)		inconclusive: 35.5 µM [inhibitor, single point]

Remaining list, next part

Row | Compound | activity change, negative = inhibition | Potency
20 | Cc1cc2oc(=O)cc(C)c2cc1NC(=O)CCl | inactive: -4.13% | 
21 | N#CCCS(=O)(=O)c1nnnn1-c1ccccc1 | inactive: -22.5% | 
22 | N#CCN1CCN(CC(=O)Nc2ccc(OCc3ccccc3)cc2)CC1 |  | inconclusive: 20.6 µM [activator, single point]
23 | Cc1cc2cc(CNC(=O)C3CC3)ccc2n1C | inactive: 0.494% | 
24 | Cc1[nH]c2ccccc2c1C(=O)C(=O)N1CCN(c2ccccc2Cl)CC1 | inactive: 16% | 
25 | O=C(Nc1ccc2c(c1)OCO2)c1cncc(Br)c1 |  | inconclusive: 29.1 µM [inhibitor, single point]
26 | CCN(C[C@H]1N[C@@](CC)(C(=O)OC)[C@H]2C(=O)N(Cc3ccccc3)C(=O)[C@@H]12)S(=O)(=O)c1ccc(F)cc1 |  | inconclusive: 18.3 µM [inhibitor, partial curve]
27 | COc1ccc(-c2nn(-c3ccccc3C)cc2CNC(C)Cn2cncn2)cc1F (stereo not drawn) |  | inconclusive: 29.1 µM [inhibitor, partial curve, poor fit]
28 | C/C(=N\NC(=O)COc1ccccc1-c1ccccc1)c1ccccn1 |  | inconclusive: 29.1 µM [activator, single point]
29 | O=C1NC[C@H](c2ccccc2)OC(=O)[C@H](Cc2ccc(F)cc2)CC/C=C/C[C@H]1CC(=O)N(CCO)Cc1ccccc1 |  | active: 2.91 µM
30 | Cc1cc(NC(=O)CSc2[nH]c(=O)cc(C(F)(F)F)c2C#N)no1 | inactive: 19.6% | 
31 | O=C1C(Cl)=C(N2CCCCC2)C(=O)C(Cl)=C1c1cnc(N2CCCCC2)s1 |  | inconclusive: 29.1 µM [inhibitor, single point]
32 | N#Cc1ccc(Cn2ccnc2C(=O)Nc2ccccc2)cc1 | inactive: 2% | 
33 | CCN(CC)c1ccc(/C=C(/C#N)c2nc3ccc(C)cc3[nH]2)c(OC(C)C)c1 |  | inconclusive: 11.6 µM [inhibitor, partial curve, poor fit]
34 | O=C(COC(=O)COc1ccccc1Cc1ccccc1)Nc1cccnc1Cl | inactive: -0.116% | 
35 | Cc1ccccc1-n1ncc2c1CC(C)(C)CC2NC(=O)CCN1CCCCC1=O (stereo not drawn) | inactive: -14.4% | 
36 | COc1ccc(-n2ncc3c2CC(C)(C)CC3NC(=O)Cc2nonc2C)cc1 (stereo not drawn) | inactive: -6.86% | 
37 | COc1ccc(C(=O)N/C(=C/c2cccs2)C(=O)NN)cc1OC |  | inconclusive: 20.6 µM [activator, single point]
38 | CCCOC(=O)c1[nH]c2c(c1C)C(=O)CC(c1cc(OC)c(OC)c(OC)c1)C2 (stereo not drawn) |  | active: 5.17 µM
